PubChem BioAssay AID720505, Drosophila RNAi Screening Center – 2013
The deposit covers about 20,000 reagents; this is an unselected part of those with a known target gene and a result. Over the whole deposit, about 2,100 (10%) got an active call. 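Raw plate signals without normalisation; calls rest on control-based scores that were not deposited; replicate 2 separates called from uncalled poorly.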 Names joined by + are all predicted targets of the reagent. Not stated in the record: the amount of reagent, the time to read-out.

Assay: 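Genes needed for store-operated calcium entry in fly cells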 (primary screen)
Cell system: Drosophila S2R+ cells
Knock-down reagent: long dsRNA against Drosophila genes
Conditions: thapsigargin (2 µM) in calcium-free buffer to empty internal stores, then 2 mM calcium added back
Measurement: 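Stores emptied by 2 µM thapsigargin without calcium, then 2 mM calcium re-added; fluo-4 fluorescence followed by FLIPR in 384-well plates, per-well averaged endpoint, raw; two screen passes, some wells retested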
Direction: calcium signal: higher = more calcium entry after store depletion
Hit rule: 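Knock-downs counted as hits when calcium entry dropped relative to STIM1 positive and Rho1 negative controls present on each plate; roughly 1500 genes called, with reductions of differing size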
Meaning of the calls: active = called as lowering calcium entry; inactive = not called

{"gene knocked down":"CG4259","amplicon":"DRSC00645","calcium signal, replicate 1":97.1,"calcium signal, replicate 2":157,"Outcome":"inactive"}
{"gene knocked down":"Drp1","amplicon":"DRSC00574","calcium signal, replicate 1":62.1,"calcium signal, replicate 2":158,"Outcome":"active"}
{"gene knocked down":"CG42854","amplicon":"DRSC19173","calcium signal, replicate 1":47.2,"calcium signal, replicate 2":65.1,"Outcome":"active"}
{"gene knocked down":"LRR","amplicon":"DRSC06444","calcium signal, replicate 1":112,"calcium signal, replicate 2":138,"Outcome":"inactive"}
{"gene knocked down":"CG31248","amplicon":"DRSC22722","calcium signal, replicate 1":154,"calcium signal, replicate 2":196,"Outcome":"inactive"}
{"gene knocked down":"CG4707","amplicon":"DRSC04483","calcium signal, replicate 1":150,"calcium signal, replicate 2":95.6,"Outcome":"inactive"}
{"gene knocked down":"CG5250","amplicon":"DRSC15752","calcium signal, replicate 1":158,"calcium signal, replicate 2":107,"Outcome":"inactive"}
{"gene knocked down":"CG34273","amplicon":"DRSC13041","Outcome":"inactive"}
{"gene knocked down":"cato","amplicon":"DRSC07589","calcium signal, replicate 1":152,"calcium signal, replicate 2":172,"Outcome":"inactive"}
{"gene knocked down":"Elp1","amplicon":"DRSC14250","calcium signal, replicate 1":80,"calcium signal, replicate 2":103,"Outcome":"inactive"}
{"gene knocked down":"Or10a","amplicon":"DRSC20264","calcium signal, replicate 1":95.1,"calcium signal, replicate 2":87.4,"Outcome":"inactive"}
{"gene knocked down":"Tsp66A + CG42661 + CG42660","amplicon":"DRSC10233","calcium signal, replicate 1":130,"calcium signal, replicate 2":87,"Outcome":"inactive"}
{"gene knocked down":"CG12362","amplicon":"DRSC09884","calcium signal, replicate 1":83.2,"calcium signal, replicate 2":99.4,"Outcome":"inactive"}

Continued, starting with the last 4 of the part before.
{"gene knocked down":"Elp1","amplicon":"DRSC14250","calcium signal, replicate 1":80,"calcium signal, replicate 2":103,"Outcome":"inactive"}
{"gene knocked down":"Or10a","amplicon":"DRSC20264","calcium signal, replicate 1":95.1,"calcium signal, replicate 2":87.4,"Outcome":"inactive"}
{"gene knocked down":"Tsp66A + CG42661 + CG42660","amplicon":"DRSC10233","calcium signal, replicate 1":130,"calcium signal, replicate 2":87,"Outcome":"inactive"}
{"gene knocked down":"CG12362","amplicon":"DRSC09884","calcium signal, replicate 1":83.2,"calcium signal, replicate 2":99.4,"Outcome":"inactive"}
{"gene knocked down":"CG30432","amplicon":"DRSC04833","calcium signal, replicate 1":104,"calcium signal, replicate 2":125,"Outcome":"inactive"}
{"gene knocked down":"Rab11","amplicon":"DRSC16809","calcium signal, replicate 1":120,"calcium signal, replicate 2":132,"Outcome":"inactive"}
{"gene knocked down":"CG8142","amplicon":"DRSC20086","calcium signal, replicate 1":169,"calcium signal, replicate 2":169,"Outcome":"inactive"}
{"gene knocked down":"CG17159 + CG17162","amplicon":"DRSC20899","calcium signal, replicate 1":74.9,"calcium signal, replicate 2":159,"Outcome":"active"}
{"gene knocked down":"CG17159 + CG17162","amplicon":"DRSC20900","calcium signal, replicate 1":62.4,"calcium signal, replicate 2":181,"Outcome":"active"}
{"gene knocked down":"Mob2","amplicon":"DRSC09856","calcium signal, replicate 1":120,"calcium signal, replicate 2":158,"Outcome":"inactive"}
{"gene knocked down":"Mob2","amplicon":"DRSC23274","calcium signal, replicate 1":92.3,"calcium signal, replicate 2":92.7,"Outcome":"inactive"}
{"gene knocked down":"CG15412","amplicon":"DRSC00427","calcium signal, replicate 1":110,"calcium signal, replicate 2":88.3,"Outcome":"inactive"}
{"gene knocked down":"CG1503","amplicon":"DRSC20512","calcium signal, replicate 1":218,"calcium signal, replicate 2":192,"Outcome":"inactive"}
{"gene knocked down":"CG9822","amplicon":"DRSC04568","calcium signal, replicate 1":147,"calcium signal, replicate 2":144,"Outcome":"inactive"}
{"gene knocked down":"CG9004","amplicon":"DRSC08617","calcium signal, replicate 1":120,"calcium signal, replicate 2":66.8,"Outcome":"inactive"}
{"gene knocked down":"CG7730","amplicon":"DRSC10909","calcium signal, replicate 1":65.2,"calcium signal, replicate 2":88.3,"Outcome":"active"}
{"gene knocked down":"Dpit47","amplicon":"DRSC04985","calcium signal, replicate 1":115,"calcium signal, replicate 2":165,"Outcome":"inactive"}
{"gene knocked down":"CheA87a","amplicon":"DRSC14839","calcium signal, replicate 1":130,"calcium signal, replicate 2":219,"Outcome":"inactive"}
{"gene knocked down":"Lcp3","amplicon":"DRSC07457","calcium signal, replicate 1":130,"calcium signal, replicate 2":106,"Outcome":"inactive"}
